# Results deposited as PubChem BioAssay AID743458 (Peter MacCallum Cancer Centre, 2014).
# Assay: 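Retest earlier hits with independent siRNAs per gene for restoring vorinostat sensitivity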 (follow-up of hits)
# System: human HCT116-VR colon cancer cells made resistant to vorinostat
# Reagents: single siRNA or pool against human genes, 25 nM per single siRNA
# Time to read-out: about 72 h after transfection, including 24 h of drug
# Challenge: vorinostat, 2.5 µM final, for 24 h
# Detection: 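Cell viability by fluorescence and apoptosis by caspase 3/7 luminescence under vorinostat, background-corrected, averaged across two plate copies and given as fold change versus mock transfection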
# Scale: viability relative to mock: higher = more living cells than mock; caspase activity relative to mock: higher = more apoptosis than mock
# Hit rule: 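Active means a reduced-viability or caspase-activation class, anything else inactive; classes could only be given to wells that looked healthy when left untreated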
# The whole screen tested about 1,800 reagents; below is a random part of them. 732 of them (41%) count as active. 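Calls are per siRNA reagent; a gene was deemed confirmed only if most of its four siRNAs scored.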 The numbers tell different reagents against one gene apart.
Gene,reagent no.,viability relative to mock,caspase activity relative to mock,viability hit class,caspase hit class,call
HHEX,1,1,1.39,no change,no change,inactive
HHEX,2,1,1.9,no change,no change,inactive
HHEX,3,0.86,2.11,no change,no change,inactive
HHEX,4,0.88,4.66,no change,caspase activation,active
MAK16,1,0.68,1.33,no change,no change,inactive
MAK16,2,0.68,2.67,no change,caspase activation,active
MAK16,3,0.55,1.27,reduced viability,no change,active
MAK16,4,0.46,2.58,reduced viability,caspase activation,active
DNER,1,0.88,1.52,no change,no change,inactive
DNER,2,0.88,0.92,no change,no change,inactive
DNER,3,0.2,3.9,no change,no change,inactive
DNER,4,0.79,0.75,no change,no change,inactive
BTN3A1,1,0.74,2.74,no change,caspase activation,active
BTN3A1,2,0.89,1.62,no change,no change,inactive
BTN3A1,3,0.22,1.31,reduced viability,no change,active
BTN3A1,4,0.92,0.84,no change,no change,inactive
POLR2J3,1,0.7,2.77,no change,caspase activation,active
POLR2J3,2,1,1.26,no change,no change,inactive
POLR2J3,3,0.77,1.54,no change,no change,inactive
POLR2J3,4,0.96,1.86,no change,no change,inactive
KIF12,1,0.26,2.17,no change,no change,inactive
KIF12,2,0.7,3.6,no change,caspase activation,active
KIF12,3,0.84,1.86,no change,no change,inactive
KIF12,4,0.94,1.38,no change,no change,inactive
OR6T1,1,0.24,4.66,reduced viability,caspase activation,active
OR6T1,2,0.92,2.85,no change,caspase activation,active
OR6T1,3,0.77,3.33,no change,caspase activation,active
OR6T1,4,0.92,1.04,no change,no change,inactive
SYT8,1,0.77,3.7,no change,caspase activation,active
SYT8,2,0.79,1.65,no change,no change,inactive
SYT8,3,0.79,2.42,no change,no change,inactive
SYT8,4,0.88,1.03,no change,no change,inactive

4 entries from above, sorted by “caspase activity relative to mock”, descending:
Gene,reagent no.,viability relative to mock,caspase activity relative to mock,viability hit class,caspase hit class,call
POLR2J3,1,0.7,2.77,no change,caspase activation,active
POLR2J3,3,0.77,1.54,no change,no change,inactive
POLR2J3,2,1,1.26,no change,no change,inactive
BTN3A1,4,0.92,0.84,no change,no change,inactive

Additional results follow:
Gene,reagent no.,viability relative to mock,caspase activity relative to mock,viability hit class,caspase hit class,call
SCRT2,1,0.84,0.92,no change,no change,inactive
SCRT2,2,0.31,3.41,reduced viability,caspase activation,active
SCRT2,3,0.56,2.57,reduced viability,no change,active
SCRT2,4,0.9,4.01,no change,caspase activation,active
PLAG1,1,1.03,2.37,no change,no change,inactive
PLAG1,2,1,3.12,no change,caspase activation,active
PLAG1,3,0.46,2.87,reduced viability,caspase activation,active
PLAG1,4,0.7,2.53,no change,no change,inactive
NPEPPS,1,0.57,1.19,no change,no change,inactive
NPEPPS,2,0.52,1,reduced viability,no change,active
NPEPPS,3,0.42,1.34,reduced viability,no change,active
NPEPPS,4,0.53,1.16,reduced viability,no change,active
EGFL6,1,0.74,2.67,no change,caspase activation,active
EGFL6,2,1.18,1.75,no change,no change,inactive
EGFL6,3,0.32,1.88,reduced viability,no change,active
EGFL6,4,0.87,1.06,no change,no change,inactive
PRICKLE2,1,0.94,2.66,no change,caspase activation,active
PRICKLE2,2,1.02,1.01,no change,no change,inactive
PRICKLE2,3,0.85,1.02,no change,no change,inactive
PRICKLE2,4,0.92,1.11,no change,no change,inactive
MAT2A,1,0.41,2.76,reduced viability,caspase activation,active
MAT2A,2,0.84,1.18,no change,no change,inactive
MAT2A,3,0.66,1.26,no change,no change,inactive
MAT2A,4,0.68,0.96,no change,no change,inactive
ANGPT1,1,0.6,2.66,no change,caspase activation,active
ANGPT1,2,0.94,1.6,no change,no change,inactive
ANGPT1,3,0.38,3.37,reduced viability,caspase activation,active
ANGPT1,4,0.95,1.25,no change,no change,inactive
